We go through 42 sequences from paper PMC7819943, “Rice protein-binding microarrays: a tool to detect cis-acting elements near promoter regions in rice”.

By UniProt entry, the sequences of proteins in these tests, tags left out.
UniProt Q0JBA9, entry or part of it: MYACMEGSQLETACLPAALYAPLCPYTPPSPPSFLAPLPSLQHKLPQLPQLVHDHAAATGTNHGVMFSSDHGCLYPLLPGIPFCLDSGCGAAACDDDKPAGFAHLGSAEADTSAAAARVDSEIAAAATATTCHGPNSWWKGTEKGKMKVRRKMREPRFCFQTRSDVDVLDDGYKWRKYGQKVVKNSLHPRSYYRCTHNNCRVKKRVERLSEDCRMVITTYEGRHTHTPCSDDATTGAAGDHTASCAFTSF

The list shows a part of the results.

The target in the test is OsWRKY34 (Oryza sativa, UniProt Q0JBA9 1-250). As to the kind of experiment: protein-binding microarray (RPBM); PBS, 2% BSA, 51.3 ng/ul salmon testes DNA, 50 uM zinc acetate, 200 nM TF, 25 C, 1 h; high values mean tight binding. The conditions noted are these: protein: recombinant; tags: N-terminal polyhistidine and DsRed monomer fusion (pET32a); label: CyDye5-dUTP incorporated in the synthesized complementary strand; 3' TTTTT single-stranded linker to array surface; dsDNA, one strand shown. In outline:
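Per-feature fluorescence intensity (arbitrary units), read on an Axon 4000B scanner, is the binding signal. Transcription factors carrying an N-terminal polyhistidine tag and DsRed fusion were expressed in E. coli BL21-CodonPlus and purified on Ni–NTA. A custom Agilent array, made double-stranded by primer extension with Cy5-dUTP and blocked with 2% BSA, was incubated with 200 nM protein in PBS, 2% BSA, salmon testes DNA and 50 µM zinc acetate at 25 °C for 1 h and then washed.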
Regarding “TACTCCTACGAACGCGCCACCTTCACCTCATGTACGTATACGGAGTCACCTAGTGCAG”, the binding signal was 9610 fluorescence intensity (a.u.).

Turning to “GCCCACCTTGATTTGCTCGTACTTTGATTCTTTCTGCCTCCGGAGTCACCTAGTGCAG”, the binding signal was 10600 fluorescence intensity (a.u.).

In the case of “TCCGGTTCGTTATTTTTATTTTTCTCAGGGAAAAAAAATCCGGAGTCACCTAGTGCAG”, the binding signal is 8060 fluorescence intensity (a.u.).

For “TAGTCGGTTTATTGGCTTATTAGCTATTTGAATTTTAAAACGGAGTCACCTAGTGCAG”, the binding signal was 8050 fluorescence intensity (a.u.).

Turning to “CCACTCATCATCAAACTCTCTCTCTCTCTCTCTCTCTCTCCGGAGTCACCTAGTGCAG”, the binding signal was 8550 fluorescence intensity (a.u.).

Consider “GTGTGCGCCACTTCTCTCGGGACGGGACGGGACGGGCGCGCGGAGTCACCTAGTGCAG”, for which the binding signal was 8640 fluorescence intensity (a.u.).

In the case of “ACTGCCCTTATCATTTCCGATTCCGTTTCCGAGAAAATATCGGAGTCACCTAGTGCAG”, the binding signal was 9240 fluorescence intensity (a.u.).

On to “GTCTTTGTTCGTTTGGTCGTTGCTACAAGTACATCGCATTCGGAGTCACCTAGTGCAG”, for which the binding signal is 12200 fluorescence intensity (a.u.).

On to “TACCCAAACACACTTAACCACAACAAGTCTGCATCATTCTCGGAGTCACCTAGTGCAG”, for which the binding signal was 10300 fluorescence intensity (a.u.).

Turning to “GCATTTCGCTTCCCAAACTCCAGCTTACCGCCTAACCCCACGGAGTCACCTAGTGCAG”, the binding signal is 9170 fluorescence intensity (a.u.).

As to “AACGTTCCGACTCGCCTCCACCACGACAACTCGCACCACACGGAGTCACCTAGTGCAG”, the binding signal is 8900 fluorescence intensity (a.u.).

As for “CATCCATAAAAGCTTTCCATATCATCTCAGAAGTACTCTACGGAGTCACCTAGTGCAG”, the binding signal was 8190 fluorescence intensity (a.u.).

Take “AAAGATTGAGGGGAAGGGTGATAGGTGGGCCCCACGTGGGCGGAGTCACCTAGTGCAG”: the binding signal was 8900 fluorescence intensity (a.u.).

Turning to “ATTTTCTTGTTTTACGTGTGACTTAATCTTCAATTTCATCCGGAGTCACCTAGTGCAG”, the binding signal is 13100 fluorescence intensity (a.u.).

Consider “TTTTCTTGGCATGGTGACCTATTTTTACTGCCTTAACCTTCGGAGTCACCTAGTGCAG”, for which the binding signal was 9380 fluorescence intensity (a.u.).

As to “CCATCAGTTTGCCCTCCGCCGCCGCCGCCTCCGCCGCCGCCGGAGTCACCTAGTGCAG”, the binding signal was 8520 fluorescence intensity (a.u.).

For “AAACTATACTCTCTTTGTCTCATTTTAAGTGCAGTCATAACGGAGTCACCTAGTGCAG”, the binding signal was 8730 fluorescence intensity (a.u.).

As to “AATGTTTGACACCGTTGACTTTTTAACACATGTTTGACCGCGGAGTCACCTAGTGCAG”, the binding signal was 39300 fluorescence intensity (a.u.).

Consider “AACAATCTAATCTATCTCTGCTTCCAATTCCCATACAAAGCGGAGTCACCTAGTGCAG”, for which the binding signal is 10600 fluorescence intensity (a.u.).

On to “GCCACATATACACGGTACCCTCTTCCTTGCATTGCAACCACGGAGTCACCTAGTGCAG”, for which the binding signal was 9870 fluorescence intensity (a.u.).

Turning to “TCTCCCCGCCCGCATCCTCGCTCTGCGCCTCCTCTCCTCACGGAGTCACCTAGTGCAG”, the binding signal is 8580 fluorescence intensity (a.u.).

Regarding “CTATACCAACGCACTTTTTCTGGAATTCGCGTTAACCCTACGGAGTCACCTAGTGCAG”, the binding signal was 8780 fluorescence intensity (a.u.).

On to “CTCCGCGCCCGTGCAGCACCCCGAGCCCGAGCCCCACCGACGGAGTCACCTAGTGCAG”, for which the binding signal was 10100 fluorescence intensity (a.u.).

In the case of “ACTCAACAACAACTTGATAGTTATTAACGTTTGACTTAAACGGAGTCACCTAGTGCAG”, the binding signal was 8340 fluorescence intensity (a.u.).

Regarding “AGCTAGGCAAGGTGGACATATGTTTTTCCTTTGGTATTTTCGGAGTCACCTAGTGCAG”, the binding signal is 8740 fluorescence intensity (a.u.).

On to “CCGCGCCTCTCCTCGCCTCCGCCTCCGTGCGCGGCTGCCGCGGAGTCACCTAGTGCAG”, for which the binding signal is 9340 fluorescence intensity (a.u.).

Consider “TGCCGTCACCCTATTTCACCTGCCTTCTTCGCCCGTCGCCCGGAGTCACCTAGTGCAG”, for which the binding signal was 9120 fluorescence intensity (a.u.).

With “GTAGGCGGGTGTTGGGTCGGTGCTTTTGTTTACAGCTAAGCGGAGTCACCTAGTGCAG”, the binding signal was 9130 fluorescence intensity (a.u.).

Regarding “ACATTCTACCGCGGGACACACACTCGTCTTTACCACACAACGGAGTCACCTAGTGCAG”, the binding signal is 10100 fluorescence intensity (a.u.).

Turning to “TGCATTTTCTCGCATCCACCGTTTAGATTTATTGAGTCGCCGGAGTCACCTAGTGCAG”, the binding signal was 9860 fluorescence intensity (a.u.).

On to “GAAGATCAATGATTCACTGTTTACTCGGCTTCTTCGCTGTCGGAGTCACCTAGTGCAG”, for which the binding signal is 9350 fluorescence intensity (a.u.).

Take “GCCTACCCTGTTCTGCCAGGTTTTGCTTCTCCTGCGTCCTCGGAGTCACCTAGTGCAG”: the binding signal was 11000 fluorescence intensity (a.u.).

Regarding “GCCCCTGTCCTTTCCGTTTGATTTTAGAGTTGATTTTTTACGGAGTCACCTAGTGCAG”, the binding signal was 10100 fluorescence intensity (a.u.).

As for “GCTTTGAGCTAAACTAATCTGTTACCCTTTGCAACTACAGCGGAGTCACCTAGTGCAG”, the binding signal was 8030 fluorescence intensity (a.u.).

As to “TCATCAGCTCCGGCTAACTCCTTTCCTTTCTTTGTTTTTTCGGAGTCACCTAGTGCAG”, the binding signal was 12900 fluorescence intensity (a.u.).

“GGGTTGTGGGATGGACTTCTCTGTTTGGGCTACCGATCTTCGGAGTCACCTAGTGCAG”: the binding signal is 13500 fluorescence intensity (a.u.).

“ATATATTTTCTCCCTAGAACTATTTCTCTTCTCTTTATATCGGAGTCACCTAGTGCAG”: the binding signal was 8500 fluorescence intensity (a.u.).

With “ATCGTTTTTTTTCCGCTGCTGCTGCTTTTGTTTCGGTGTGCGGAGTCACCTAGTGCAG”, the binding signal was 10900 fluorescence intensity (a.u.).

On to “CATACACACACAATTTTTCAGTCATATCATCTTCAATTTCCGGAGTCACCTAGTGCAG”, for which the binding signal was 9490 fluorescence intensity (a.u.).

“TTGTCATTTATTTTGCTAGTTATGTCACATTCTAAATTGACGGAGTCACCTAGTGCAG”: the binding signal was 9890 fluorescence intensity (a.u.).

Regarding “GAGTACATCCGTAGCTGCCAGCACCCACTGCCCAATGAGACGGAGTCACCTAGTGCAG”, the binding signal was 8660 fluorescence intensity (a.u.).

For the sequence “ACATCACAGCCTCAGAGAATGGGCAGCACACATTGATCATCGGAGTCACCTAGTGCAG”, the binding signal is 8170 fluorescence intensity (a.u.).
